Results taken from publication PMC9448375 (Drug Delivery, 2022).

Assay: Far-UV circular dichroism, secondary structure analysis (CDNN)
Format: physicochemical
Settings: CDNN software; for Antiparallel (secondary structural composition) / Others (secondary structural composition) / Parallel (secondary structural composition) / α helix (secondary structural composition) / β turn (secondary structural composition): far-UV CD 195–260 nm, PBS pH 7.4, NaCl 150 mM, INS-equivalent 1 mg/mL, 25 °C; for β-sheet (secondary structural composition): sum of antiparallel and parallel, far-UV CD

Substance: Dissociated INS: INS dissociated from the INS–SOS complex
- Antiparallel (secondary structural composition): 7.4%
- Others (secondary structural composition): 30.6%
- Parallel (secondary structural composition): 7.9%
- α helix (secondary structural composition): 36.7%
- β turn (secondary structural composition): 16.2%
- Others (secondary structural composition) (listed as dissociated INS): 30.6%
- α helix (secondary structural composition) (listed as dissociated INS): 36.7%
- β turn (secondary structural composition) (listed as dissociated INS): 16.2%
- β-sheet (secondary structural composition): 15.3%

Substance: Insulin
- Antiparallel (secondary structural composition): 6.9%
- Others (secondary structural composition): 29.8%
- Parallel (secondary structural composition): 7.7%
- α helix (secondary structural composition): 38.0%
- β turn (secondary structural composition): 16.0%
- Others (secondary structural composition) (listed as INS solution): 29.8%
- α helix (secondary structural composition) (listed as INS solution): 38.0%
- β turn (secondary structural composition) (listed as INS solution): 16.0%
- β-sheet (secondary structural composition): 14.6%
